# Screen size: about 320,000 compounds; about 2,100 (0.66%) were called active. The shares of active, inactive and inconclusive entries below differ from those in the screen. Calls come from the whole dose curve; as a rule, active = well fitted inhibition curve with a large enough effect in the signal ratio, with a control signal flat (not every such curve was filed as active); inconclusive = small, poorly fitted or top-dose-only effect, or effect the other way, or a change in a side signal; inactive = flat fitted curve, though single readings scatter; the % refers to the signal ratio. Potencies of inconclusive entries are doubtful fits and often do not repeat.
# Assay: qHTS Assay for Lipid Storage Modulators in Drosophila S3 Cells
# Conditions: BODIPY lipid droplet fluorescence, 18-24 h, cells fed with added oleic acid; lipid storage change, negative = inhibition: at 46.1 µM (top of the series) unless noted
# Summary of the method: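 Drosophila S3 cells loaded with oleic acid (400 uM, as added) and compounds at several concentrations; lipid droplets imaged by 488-nm laser-scanning cytometry, 500–530 nm intensity and object ratio to cell channel. Percent activity normalized to 20 uM Triacsin C.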
# % is set by controls: 0 for no effect and ±100 for the full control effect; potency is the fitted concentration of half-maximal effect.
Compound,"lipid storage change, negative = inhibition",Potency,outcome
O=C(Nc1cccc(NC(=O)c2ccc(Br)o2)n1)c1ccc(Br)o1,inactive: 17.3%,–,–
CCc1nc2ccccc2c(C(=O)OCc2nnc(-c3ccccc3)o2)c1C,inconclusive: 289%,–,–
CC(CNC(=O)COC(=O)c1ccco1)c1ccccc1 (centres undefined),–,"inconclusive: 29.1 µM [falling, single point]",–
N#Cc1ccc(Oc2ccc(/C=N/O)cn2)cc1,inconclusive: 17.2%,–,–
COc1ccc(CN(C2CCCC2)S(=O)(=O)c2ccc(-n3cnnn3)cc2)cc1,inconclusive: 8.43%,–,–
CCSc1nnc(NC(=O)CSc2nnc(CNC(=O)c3ccccc3F)o2)s1,inconclusive: 48.1%,–,–
O=C(c1cc2ccccc2o1)N1CCN(CCOc2ccccc2)CC1,–,"inconclusive: 0.0052 µM [falling, full curve, poor fit]",–
OCc1cn(Cc2ccc(O)c3ncccc23)cn1,inconclusive: 11.3%,–,–
CCCOc1cccc(C2/C(=C(/O)c3ccc(F)cc3)C(=O)C(=O)N2CCN(C)C)c1 (centres undefined),inconclusive: 58.1%,–,–
c1ccc(-c2nc(N3CCCC3)nc3ccccc23)cc1,inconclusive: 38.2%,–,–
CC(C)(CNC(=O)c1cc(Cl)c(O)c(Cl)c1)N1CCCCC1,inconclusive: -83.4%,–,–
CCCCN(C(=O)c1cccc(S(=O)(=O)N2CCN(C)CC2)c1)c1c(N)n(CCC)c(=O)[nH]c1=O,inconclusive,–,–
O=C(Cn1nc2ccccc2n1)N/N=C/c1ccc(F)cc1,inactive: 14.4%,–,–
Cc1ccsc1C(=O)Nc1ccc(OCc2ccccc2)cc1,–,"inconclusive: 1.84 µM [activator, full curve, poor fit]",–
O=C(NCCSc1ccccc1)c1cncc(Br)c1,inconclusive: -3.62%,–,–
COc1ccc(C)cc1NC(=O)c1ccccc1N(C)S(=O)(=O)c1ccccc1,–,"inconclusive: 2.59 µM [activator, single point]",–
O=C(CCC(=O)Nc1ccc(Oc2ccccc2)cc1)NCCO,inconclusive: 18.5%,–,–
O=C(CSc1nnc(-c2ccc(Br)cc2)n1CCc1ccccc1)NC1CCS(=O)(=O)C1 (centres undefined),inconclusive: 14.4%,–,–
CCC(=O)Nc1c2c(nc3c1CCC3)CCCC2,inconclusive: 9.22%,–,–
CN(C)C1=NC[C@H](Cc2ccccc2)N1CCC1CCCC1,inconclusive: 8.51%,–,–
Cc1ccc(Nc2nc(N)nc(CCl)n2)cc1,–,"inconclusive: 0.0651 µM [falling, full curve, poor fit]",–
Cc1c(Cl)cccc1N=Cc1ccc([N+](=O)[O-])s1,–,"inconclusive: 29.1 µM [falling, single point]",–
Cc1ccc(-n2nnnc2SCCNS(=O)(=O)c2ccccc2)cc1C,–,–,inactive [at 46.1 µM]
CCCOP(=O)(OCCC)C(Nc1cccc(C(F)(F)F)c1)c1ccc(C)cc1 (centres undefined),inconclusive: -27.9%,–,–
CCOC(=O)CCSCC(=O)N1N=C(c2cccs2)CC1c1ccc(C)cc1 (centres undefined),–,"inconclusive: 29.1 µM [falling, single point]",–
Cn1ncc(Cl)c1C(=O)NC1C2CC3CC(C2)CC1C3 (centres undefined),inconclusive: -61.3%,–,–
Cc1onc(-c2ccccc2)c1C(=O)NCCc1ccc(S(N)(=O)=O)cc1,inconclusive: -47.2%,–,–

Compound,"lipid storage change, negative = inhibition",Potency,outcome
COc1ccccc1OC(C)C(=O)Nc1ccccc1C(=O)NCC1CCCO1 (centres undefined),inconclusive: -81.5%,–,–
FC(F)Oc1ccccc1/C=N/n1cnc2ccccc21,inconclusive: 24.5%,–,–
COc1cc(NC(=O)c2ccc(-c3ccc(Br)cc3)o2)ccc1NC(=O)C(C)C,–,"inconclusive: 0.366 µM [activator, full curve, poor fit]",–
CCOC(=O)N1CCN(C(=O)c2cc3c(=O)n(C)c4ccccc4c3n2C)CC1,inconclusive: 34.6%,–,–
CN1CCN(S(=O)(=O)c2cc(Cl)c(Cl)cc2Cl)CC1,inconclusive: -24.9%,–,–
CC1=NNC(=O)/C1=C\c1cn(-c2ccccc2)nc1-c1cccs1,–,"inconclusive: 13 µM [falling, partial curve]",–
O=C(NCCOC(=O)c1ccc(Cl)c(S(=O)(=O)N2CCCCC2)c1)c1ccncc1,inconclusive: -12.9%,–,–
CCOc1cc(/C=N/NC(=O)CSc2nncn2C)ccc1OCc1ccccc1,–,"inconclusive: 0.164 µM [activator, full curve, poor fit]",–
CCn1cc(C(=O)NC2CC(C)(C)Cc3c2cnn3-c2cccc(F)c2)cn1 (centres undefined),inconclusive: -61.8%,–,–
Nc1cc(C(F)(F)F)ccc1Nc1ccccc1,inconclusive: -85.4%,–,–
CCCCn1c(N)c(N(CCOC)C(=O)CSc2ccccc2C)c(=O)[nH]c1=O,inconclusive: 10.7%,–,–
COc1cc(NS(=O)(=O)c2ccc(NC(=O)c3ccco3)cc2)nc(OC)n1,–,"inconclusive: 20.6 µM [rising, single point]",–
COC(=O)C1=CN(C(C)c2ccccc2)C=C(C(=O)OC)C1c1cc(OC)c(OC)c(OC)c1 (centres undefined),inconclusive: -32%,–,–
CN(CCOc1ccc(Cl)cc1)C(=O)c1cc(-c2ccco2)nc2ccccc12,–,"inconclusive: 18.4 µM [activator, partial curve, poor fit]",–
CCCCNc1c(-c2cccc(SC3CCCCC3)c2)nc2ccc(Cl)cn12,inactive: 2.09%,–,–
C=CCNC(=S)N1CCN(c2cc3c(cc2F)c(=O)c(C(=O)O)cn3CC)CC1,inconclusive: 9.33%,–,–
c1coc(-c2nnc(-c3ccco3)nn2)c1,inconclusive: 44.3%,–,–
CCCOc1cccc(C(=O)NCCCNC(=O)c2cccnc2)c1,inconclusive: -32.5% [at 0.00295 µM],–,–
COc1ccccc1CN(C)C(=O)c1ccccc1Sc1ccccc1C#N,–,"inconclusive: 13 µM [activator, partial curve]",–
Cc1ccc(NC(=O)CCSCCC(=O)Nc2ccc(C)c(C)c2)cc1C,inactive: 1.97%,–,–
COc1ccc(-n2ncc3c(=O)n(CC(=O)NC(C)C)cnc32)cc1,inconclusive: -12.2%,–,–
CCC(=O)Nc1c(C(=O)N2CCN(c3ccccn3)CC2)cnn1-c1ccc(Cl)cc1,–,"inconclusive: 0.82 µM [activator, full curve, poor fit]",–
O=C(NCCc1ccccc1)c1ccc(-c2ccccc2Cl)o1,–,"inconclusive: 23.1 µM [activator, partial curve]",–
Cc1cccc(NC(=O)NC2CCCc3ccccc32)c1 (centres undefined),inconclusive: 13.4%,–,–
FC(F)(F)c1cccc(NC(=S)NCc2ccccc2)c1,–,"inconclusive: 29.1 µM [falling, single point]",–
Cc1cc(OC(=O)Cc2cccc3ccccc23)c([N+](=O)[O-])c(=O)[nH]1,inconclusive: -32.4%,–,–

# Another view of some results above.
Compound | lipid storage change, negative = inhibition | Potency | outcome
CC(C)(CNC(=O)c1cc(Cl)c(O)c(Cl)c1)N1CCCCC1 | inconclusive: -83.4% | – | –
FC(F)Oc1ccccc1/C=N/n1cnc2ccccc21 | inconclusive: 24.5% | – | –

# Next part.

Compound,"lipid storage change, negative = inhibition",Potency,outcome
COc1ccccc1N1CCN(C(=O)CCNC(=O)c2ccco2)CC1,–,"inconclusive: 29.1 µM [activator, single point]",–
Nc1ccccc1Sc1cc(Cl)nnc1Cl,inconclusive: -21.5%,–,–
O=C(Nc1ccccc1-c1nc2ccccc2s1)c1ccco1,–,"inconclusive: 3.66 µM [activator, full curve]",–
Cc1ccc(C)c(N2CCN(S(=O)(=O)c3ccc4c(c3)CCN4C(=O)CCC(=O)O)CC2)c1,–,"inconclusive: 0.461 µM [falling, partial curve, poor fit]",–
CCc1c(C(C)S(=O)(=O)c2ccc(C)cc2)[nH]c(=O)n1-c1ccc(OC(F)(F)F)cc1 (centres undefined),–,"inconclusive: 5.17 µM [activator, partial curve]",–
Cn1c(=O)n(C)c2cc(NC(=O)CSc3nc4ccccc4c(=O)[nH]3)ccc21,inconclusive: -43.9%,–,–
C=C(C)CSc1nncn1/N=C/c1ccc(OC)cc1,inconclusive: 12.1%,–,–
CCC(C)(C)NC(=O)CN(C(=O)c1csnn1)c1cccc2c1CCCC2,inactive: -4.03%,–,–
COc1ccc(N2CCN(C(=O)C(=O)c3c(C)n(C)c4ccccc34)CC2)cc1,inconclusive: 11.6%,–,–
CCOC(=O)n1c(=O)n(Cc2ccc(Cl)cc2Cl)c2ccccc21,inconclusive: -1.24%,–,–
O=C(NC(c1ccccc1)c1ccccc1)C1(c2cccs2)CCOCC1,inconclusive: -31.4%,–,–
CCOC(=O)c1nn(-c2ccccc2F)c2nc(Nc3ccccc3)cc(=O)n12,inconclusive: 8.24%,–,–
COc1ccc(C(C)=O)cc1CSc1ccc(S(=O)(=O)N2CCOCC2)cn1,inconclusive: 4.47%,–,–
CCC(C)NC(=O)CSc1nc2ccsc2c(=O)n1NC(=O)c1ccccc1 (centres undefined),inconclusive: -0.0276%,–,–
CCc1cccc(OCC(=O)Nc2cc(Cl)ccc2-n2cncn2)c1,inconclusive: 9.21%,–,–
Nn1c(SCC(=O)NCC2CCCO2)nnc1-c1ccc(OC(F)F)cc1 (centres undefined),inconclusive,–,–
COc1ccc(S(=O)(=O)N2CCCC(C(F)(F)F)C2)cc1 (centres undefined),inconclusive: -64.5%,–,–
CN(CC(=O)Nc1ccc(Cl)cc1)Cc1cc(=O)n2ccsc2n1,inconclusive: 4.92%,–,–
CCCOc1ccc(CNC(=O)CCC(=O)n2ncc3cc(C)ccc32)cc1,inconclusive: 34.1%,–,–
N#Cc1c(/N=C/C=C/c2ccccc2)sc2c1CCCC2,inconclusive: -6.24%,–,–
CC(NC(=O)COC(=O)c1ccccc1SCC(=O)N1CCCC1)c1ccccc1 (centres undefined),–,"inconclusive: 1.64 µM [falling, partial curve, poor fit]",–
CN1CCc2c(sc(/N=C/c3cc(Cl)ccc3O)c2C#N)C1,inconclusive: 9.66%,–,–
C/C(=N\NC(=O)Cc1c(C)[nH][nH]c1=O)c1cccc(Br)c1,–,"inconclusive: 8.2 µM [activator, partial curve, poor fit]",–
COc1cc(NC(=O)C2CC2C)c(C(=O)O)cc1OC (centres undefined),inconclusive: 34%,–,–
COc1ccccc1-c1nc(C#N)c(N2CCCCCC2)o1,inconclusive: 10.5%,–,–

# Sorted by heavy-atom count (ascending): some entries from above
Compound,"lipid storage change, negative = inhibition",Potency,outcome
O=C(Cn1nc2ccccc2n1)N/N=C/c1ccc(F)cc1,inactive: 14.4%,–,–
COc1ccc(-n2ncc3c(=O)n(CC(=O)NC(C)C)cnc32)cc1,inconclusive: -12.2%,–,–
CCn1cc(C(=O)NC2CC(C)(C)Cc3c2cnn3-c2cccc(F)c2)cn1 (centres undefined),inconclusive: -61.8%,–,–
CCc1c(C(C)S(=O)(=O)c2ccc(C)cc2)[nH]c(=O)n1-c1ccc(OC(F)(F)F)cc1 (centres undefined),–,"inconclusive: 5.17 µM [activator, partial curve]",–

# — PubChem BioAssay AID2685 (National Center for Advancing Translational Sciences (NCATS), 2010)
